From PubChem BioAssay AID1671190 (National Center for Advancing Translational Sciences (NCATS), 2021)
“And” between values parts separate entries of the source, which are not always exact repeats. Identical values can stand only once. The whole screen tested about 580,000 compounds, of which about 6,100 (1.1%) were called active. The shares of active, inactive and inconclusive entries below differ from those in the screen. The call rests on the fitted dose curve; in most records, active means well fitted inhibition curve with a large enough effect; inconclusive means small, poorly fitted or top-dose-only effect, or another doubt; inactive means no such curve, though single readings can be large or run the other way. Potencies of inconclusive entries are doubtful fits and often do not repeat.
Potency means the concentration at half of the fitted maximal effect.

By UniProt entry, the sequences of proteins in these tests, tags left out. Where a name states a change or a piece, a line headed by the entry shows the natural chain unless it says otherwise.
UniProt P18054: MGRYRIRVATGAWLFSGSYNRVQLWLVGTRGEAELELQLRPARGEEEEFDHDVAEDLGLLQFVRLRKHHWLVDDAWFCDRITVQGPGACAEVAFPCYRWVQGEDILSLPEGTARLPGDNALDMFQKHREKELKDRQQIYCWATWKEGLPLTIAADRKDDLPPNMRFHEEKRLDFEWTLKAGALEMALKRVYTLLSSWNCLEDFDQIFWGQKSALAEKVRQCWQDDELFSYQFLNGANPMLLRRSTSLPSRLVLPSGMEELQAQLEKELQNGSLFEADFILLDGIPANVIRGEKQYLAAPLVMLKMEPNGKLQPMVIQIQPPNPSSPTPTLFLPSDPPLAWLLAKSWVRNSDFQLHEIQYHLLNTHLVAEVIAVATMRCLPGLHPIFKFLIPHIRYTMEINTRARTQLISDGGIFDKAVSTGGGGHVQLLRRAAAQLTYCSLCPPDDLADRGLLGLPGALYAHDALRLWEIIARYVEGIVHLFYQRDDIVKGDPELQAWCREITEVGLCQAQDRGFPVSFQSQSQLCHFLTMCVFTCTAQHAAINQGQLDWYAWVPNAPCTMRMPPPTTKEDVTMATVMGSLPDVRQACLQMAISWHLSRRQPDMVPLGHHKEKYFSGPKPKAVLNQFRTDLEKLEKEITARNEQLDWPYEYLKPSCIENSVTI

Each compound was assayed against Polyunsaturated fatty acid lipoxygenase ALOX12 (Homo sapiens) (UniProt P18054) (assay: Primary qHTS assay for inhibitors of human arachidonate 12S-lipoxygenase (ALOX12): Round 2). Conditions: purified 12hLO, xylenol orange hydroperoxide absorbance; series mostly up to 108 µM.
Summary of the method: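 Purified human 12hLO (150 nM final) in 25 mM Hepes, 0.01% Triton X-100, pH 7.0 was preincubated 15 min at room temperature with compound. Then 40 uM arachidonic acid was added, 30 min. Hydroperoxide was read by Fe-XO absorbance ratio 573/405 nm.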
With O=C1c2cccc3c(O)ccc(c23)C(=O)N1Cc1ccco1 the Potency was inconclusive: 158 µM [inhibitor, partial curve, poor fit]. With CC(NCC(O)COCCC12CC3CC(CC(C3)C1)C2)c1ccccc1 (centres undefined) the Potency was inconclusive: 79.4 µM [inhibitor, partial curve, poor fit]. CCOc1ccc(S(=O)(=O)NCCc2sc(-c3cccc(F)c3)nc2C)cc1 was tested, and the Potency was “inactive”. With CCCCCCCCCc1conc1C(=O)/C=C/c1ccco1 the Potency was inconclusive: 25.1 µM [inhibitor, partial curve]. For COc1ncccc1-c1cc(C(=O)N2CCC(OC)CC2)c2c(c1)ncn2C, the Potency was inconclusive: 2.24 µM [inhibitor, full curve]. COc1ccc(C2C(C(=O)c3cccs3)=C(O)C(=O)N2c2nncs2)cc1 (centres undefined) was tested, and the Potency was inconclusive: 3.98 µM [inhibitor, full curve, poor fit]. Cc1ccc(S(=O)(=O)NCC(CCC(=O)O)C(F)(F)F)cc1 (centres undefined) was tested, and the Potency was “inactive”. With COc1ccc(NS(=O)(=O)c2cccc(C(=O)N3c4ccccc4CC3C)c2)cc1 (centres undefined) the Potency was inconclusive: 22.4 µM [inhibitor, single point]. CC(=O)N(C1CCOCC1)C1CCN(S(=O)(=O)c2ccccc2)CC1 was tested, and the Potency was “inactive”. With O=C(c1cn2ccsc2n1)N1CC[C@@H](c2ccc3c(c2)OCO3)[C@H](O)C1 the Potency was “inactive”. In the case of COC(=O)c1cc(Nc2cc(C)c3c(O)cccc3n2)cc(C(=O)OC)c1, the Potency is reported as “inactive”. CCN1C(=O)COc2ccc(-c3csc(NC(=O)c4ccco4)n3)cc21 was tested, and the Potency was inconclusive: 63.1 µM [inhibitor, partial curve, poor fit]. In the case of CCCCN(CC)CCCNC(=O)c1cn(C)c(=O)c2c1c1ccccc1n2C, the Potency is reported as inconclusive: 79.4 µM [inhibitor, partial curve, poor fit]. CCN1CCN(c2nc3ccccc3nc2NS(=O)(=O)c2ccccc2)CC1 was tested, and the Potency was inconclusive: 100 µM [inhibitor, single point]. Cc1cccc(NC(=S)N2CCC(c3nc4ccccc4o3)CC2)c1 was tested, and the Potency was inconclusive: 79.4 µM [inhibitor, partial curve, poor fit]. With CN(CC(=O)NC(=O)NC1CCCCC1)c1ccc2ccccc2c1 the Potency was inconclusive: 56.2 µM [inhibitor, partial curve, poor fit]. With Cc1cccc(C(=O)NC(=S)NNC(=O)Cc2ccccc2)c1 the Potency was active: 44.7 µM. For O=C(COc1ccccc1)NC12CC3CC(CC(C3)C1)C2, the Potency was inconclusive: 3.55 µM [inhibitor, full curve, poor fit]. Cc1ccc(S(=O)(=O)Oc2ccc3c(C)cc(=O)oc3c2)cc1 was tested, and the Potency was “inactive”. Cc1cc(Nc2cccc(Cl)c2)nc(N2CCOCC2)n1 was tested, and the Potency was “inactive”. In the case of COc1ccc(OC)c(S(=O)(=O)NCCS(=O)(=O)N2CCN(c3ccccc3F)CC2)c1, the Potency is reported as inconclusive: 141 µM [inhibitor, partial curve, poor fit]. With COc1ccc2nc(C)cc(Nc3ccc(Cl)cc3)c2c1 the Potency was inconclusive: 44.7 µM [inhibitor, partial curve, poor fit]. In the case of Cc1cc(C)n(CCC(=O)N/N=C/c2ccc(Cl)c([N+](=O)[O-])c2)n1, the Potency is reported as “inactive”. Cc1ccc(-n2c(C3CCN(C(=O)c4n[nH]c5ccccc45)CC3)n[nH]c2=O)cc1 was tested, and the Potency was inconclusive: 10 µM [inhibitor, full curve]. COc1ccc(N2CCN(C(=O)COc3ccc(Cl)cc3Cl)CC2)cc1 was tested, and the Potency was inconclusive: 20 µM [inhibitor, full curve, poor fit]. CC(C)Cc1ccc(CN2CCCC(NC(=O)CCN3CCCCC3=O)C2)cc1 (centres undefined) was tested, and the Potency was “inactive”. For COc1ccc(OC)c(NC(=S)NCc2ccccc2OC)c1, the Potency was inconclusive: 39.8 µM [inhibitor, partial curve]. In the case of CCCc1nnc(SCc2cc(=O)c3c(C)cc(C)cc3[nH]2)n1C, the Potency is reported as inconclusive: 224 µM [inhibitor, partial curve, poor fit]. CCOC(=O)c1sc(N(Cc2ccccc2)C(=O)CCl)nc1C was tested, and the Potency was inconclusive: 50.1 µM [inhibitor, partial curve, poor fit]. With O=C(C[C@@H]1C[C@@H]2c3cc(NS(=O)(=O)c4ccc(F)cc4)ccc3O[C@@H]2[C@@H](CO)O1)NC1CCCCC1 the Potency was inconclusive: 89.1 µM [inhibitor, single point]. In the case of CC1CCC2(CC1)NC(=O)N(CC(=O)Nc1ccccc1C(F)(F)F)C2=O (centres undefined), the Potency is reported as inconclusive: 12.6 µM [inhibitor, full curve]. With NNS(=O)(=O)c1ccc(Sc2ccccn2)c([N+](=O)[O-])c1 the Potency was inconclusive: 89.1 µM [inhibitor, partial curve, poor fit]. With Cc1cccc(NC(=O)CN2C(=O)N/C(=C\c3cccn3-c3cccc(C(=O)O)c3)C2=O)c1 the Potency was active: 44.7 µM. With CCCN[C@H]1CCc2nc(N)sc2C1 the Potency was inconclusive: 3.85 µM [inhibitor, full curve, poor fit] and inconclusive: 12.6 µM [inhibitor, full curve]. For COc1ccc(-c2csc(Nc3ccc(S(=O)(=O)Nc4cc(C)on4)cc3)n2)cc1C, the Potency was inconclusive: 39.8 µM [inhibitor, partial curve, poor fit]. In the case of Brc1ccc(-c2noc(-c3ccc(Br)o3)n2)o1, the Potency is reported as inconclusive: 10 µM [inhibitor, full curve, poor fit]. In the case of CCN1CCCC1CNC(=O)c1ccc2c(c1)NC(=O)/C(=C\c1ccccc1F)S2 (centres undefined), the Potency is reported as inconclusive: 44.7 µM [inhibitor, partial curve, poor fit]. With Cc1nn(-c2ncnc3nc[nH]c23)c2c1C(c1ccc(F)c(F)c1)CC(=O)N2 (centres undefined) the Potency was “inactive”. In the case of N/C(=C\C(=O)C(F)(F)F)c1ccc(Cl)cc1, the Potency is reported as inconclusive: 63.1 µM [inhibitor, partial curve, poor fit]. In the case of CCCC(C)N1CC2(CCN(Cc3nnc(-c4ccccc4)o3)CC2)OC1=O (centres undefined), the Potency is reported as “inactive”. For CCCS(=O)(=O)NC(=O)C1(C)CCCN(C(=O)c2cc(-c3cccs3)oc2C)C1 (centres undefined), the Potency was “inactive”. O=C1NC(c2ccccc2)N=C2Oc3ccccc3C=C12 (centres undefined) was tested, and the Potency was inconclusive: 63.1 µM [inhibitor, partial curve, poor fit]. COc1cc(C=Nc2ccc(C)c(I)c2)ccc1OC(C)=O was tested, and the Potency was inconclusive: 126 µM [inhibitor, partial curve, poor fit]. With O=C(NC1CCN(c2cc(-c3ccc(F)cc3)[nH]n2)CC1)c1ccc(F)c(Cl)c1 the Potency was inconclusive: 17.8 µM [inhibitor, full curve, poor fit]. With O=C(O)CCN1Cc2ccccc2C1=O the Potency was inconclusive: 70.8 µM [inhibitor, single point]. Cc1nc2c3c(C)c(C)n(Cc4cccnc4)c3ncn2n1 was tested, and the Potency was “inactive”. With CCCc1cnc(N2CCN(C(=S)NC)CC2)nc1 the Potency was inconclusive: 89.1 µM [inhibitor, partial curve, poor fit]. For N#Cc1c2n(c3c(=S)nc[nH]c13)CCCCC2, the Potency was inconclusive: 20 µM [inhibitor, partial curve, poor fit]. With FC(F)(F)c1ccccc1-n1c(-c2ccco2)n[nH]c1=S the Potency was inconclusive: 31.6 µM [inhibitor, single point]. In the case of CCCCNC(=O)C12CC3CC(C1)CC(c1ccccc1)(C3)C2, the Potency is reported as inconclusive: 126 µM [inhibitor, partial curve, poor fit]. With CCOC(=O)N1CCN(C(=O)CNC(=O)c2cc3cc(OC)ccc3n2C)CC1 the Potency was “inactive”. With Cc1nc(NCCN2CCC(O)CC2)cc(C2CC(O)C2)n1 (centres undefined) the Potency was “inactive”. With Oc1ccc(C(c2nnnn2C2CCCC2)N2CCc3ccccc3C2)cc1 (centres undefined) the Potency was inconclusive: 3.55 µM [inhibitor, full curve, poor fit]. Cc1ccc2nc(-c3ccco3)c(Cc3cccc(Cl)c3)n2c1 was tested, and the Potency was active: 25.1 µM. In the case of Cc1ccc(C(=O)NCCN2CCC(n3c(=O)[nH]c4ccccc43)CC2)cc1F, the Potency is reported as inconclusive: 22.4 µM [inhibitor, partial curve, poor fit]. CCc1ccc(CNC(=O)Cn2nc(C)c3nn(-c4ccc(Cl)cc4)c(C)c3c2=O)cc1 was tested, and the Potency was inconclusive: 112 µM [inhibitor, partial curve, poor fit]. For CCCn1c(C)c(CC(=O)N(C)Cc2nnc(C)o2)c2c1CC(C)(C)CC2=O, the Potency was inconclusive: 44.7 µM [inhibitor, partial curve, poor fit]. In the case of CC1(c2ccc(OCC#N)cc2)C=C(c2ccc(OCC#N)cc2)n2nc(C(F)(F)F)nc2N1 (centres undefined), the Potency is reported as “inactive”. For COc1ccccc1/C=C/c1ccc2cccc(O)c2n1, the Potency was inconclusive: 39.8 µM [inhibitor, partial curve, poor fit]. Cn1cccc1-c1cc2n(n1)CCC(=O)N2CCCC(=O)NCc1cccc(Cl)c1 was tested, and the Potency was inconclusive: 8.91 µM [inhibitor, full curve, poor fit]. CC(=O)N1CCN(C(=O)Cn2ccc3c(Br)cccc32)CC1 was tested, and the Potency was inconclusive: 28.2 µM [inhibitor, partial curve, poor fit]. In the case of CCC(C)c1ccc(NC(=O)Cc2cccs2)cc1 (centres undefined), the Potency is reported as inconclusive: 50.1 µM [inhibitor, partial curve, poor fit]. With COc1ccc2c(c1)c(CC(=O)Nc1c(C)cccc1C)c(C)n2C(=O)c1ccc(Cl)cc1 the Potency was inconclusive: 44.7 µM [inhibitor, partial curve, poor fit]. For O=C(COC(=O)CCC(=O)c1ccc(Cl)cc1)NC1CCCCCCC1, the Potency was inconclusive: 50.1 µM [inhibitor, single point].
